The text below walks through data of the supplement of paper PMC10735217.

Counter-ions that a name gives are not always drawn. Some of the results follow. This data set is noisy: repeats of one test often differ as much as different tests do.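 In a drug-repurposing library screen, luminescence reads luciferase driven by eight TEAD-binding elements, stably integrated into human kidney-derived cells. Compounds scoring over five robust Z scores above the plate mean are called hits.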

In this test the test system is HEK293A TEAD-LUC reporter. Put plainly: TEAD-luciferase reporter activity (YAP activation), robust Z score vs plate; higher = stronger YAP/TEAD activation. The conditions noted are these: 24 h. (In a reporter assay the amount or activity of a reporter protein is the signal.)

With `Nc1nc(NC2CC2)c2ncn([C@H]3C=C[C@@H](CO)C3)c2n1` [abacavir], the TEAD-luciferase reporter activity was inactive: -1.21 (compound concentration: 200 nM), inactive: -0.762 (compound concentration: 2 uM) and inactive: -0.382 (compound concentration: 10 uM).

Consider `O=C1CC[C@H](N2Cc3c(OCc4ccc(CN5CCOCC5)cc4)cccc3C2=O)C(=O)N1` [Iberdomide], for which the TEAD-luciferase reporter activity (compound concentration: 200 nM) was inactive: -1.26, the TEAD-luciferase reporter activity (compound concentration: 2 uM) is inactive: 3.01 and the TEAD-luciferase reporter activity (compound concentration: 10 uM) was inactive: 3.03.

For `CC(C)C(=O)c1ccc(OCCCN2CCC(C(O)(c3ccc(F)cc3)c3ccc(F)cc3)CC2)cc1`, the TEAD-luciferase reporter activity by setting is: (compound concentration: 200 nM) inactive: -1.31; (compound concentration: 2 uM) inactive: 1.41; (compound concentration: 10 uM) inactive: -1.12.

In the case of `CCCN1CCCCC12Cc1ccccc1CN(C(=O)CNC(C)=O)C2` (stereo not drawn), the TEAD-luciferase reporter activity is inactive: -3.99 (compound concentration: 200 nM) and inactive: 3.57 (compound concentration: 10 uM).

As for `C[C@](N)(Cc1ccc(O)cc1)C(=O)O` [L-alpha-Methyl-p-tyrosine], the TEAD-luciferase reporter activity was inactive: -1.13 (compound concentration: 200 nM) and inactive: -1.09 (compound concentration: 10 uM).

As for `C[C@](N)(Cc1ccc(O)cc1)C(=O)O` [Metirosine], the TEAD-luciferase reporter activity (compound concentration: 2 uM) was inactive: -0.963.

Take `N=C(N)N/N=C(\c1ccccc1)c1cc(Cl)ccc1N`: the TEAD-luciferase reporter activity reads like this: (compound concentration: 200 nM) inactive: -0.751; (compound concentration: 2 uM) inactive: -0.429; (compound concentration: 10 uM) inactive: 2.28.

Regarding `N=C(N)NCCCC(N)C(=O)O` (stereo not drawn) [argimesna], the TEAD-luciferase reporter activity runs as follows: (compound concentration: 200 nM) inactive: -1.16; (compound concentration: 2 uM) inactive: -0.599; (compound concentration: 10 uM) inactive: -0.807.

`CC[C@H](C)[C@@H]([C@@H](CC(=O)N1CCC[C@H]1[C@H](OC)[C@@H](C)C(=O)N[C@@H](Cc1ccccc1)c1nccs1)OC)N(C)C(=O)[C@@H](NC(=O)[C@@H](NC)C(C)C)C(C)C` [Monomethylauristatin D (MMAD)]: the TEAD-luciferase reporter activity reads like this: (compound concentration: 200 nM) inactive: 3.91; (compound concentration: 10 uM) inactive: 3.42.

`CC[C@H](C)[C@@H]([C@@H](CC(=O)N1CCC[C@H]1[C@H](OC)[C@@H](C)C(=O)N[C@@H](Cc1ccccc1)c1nccs1)OC)N(C)C(=O)[C@@H](NC(=O)[C@@H](NC)C(C)C)C(C)C` [Monomethylauristatin D]: the TEAD-luciferase reporter activity (compound concentration: 2 uM) is active: 7.11.

With `CC(C)C[C@H](NC(=O)[C@H](CCc1ccccc1)NC(=O)CN1CCOCC1)C(=O)N[C@@H](Cc1ccccc1)C(=O)N[C@@H](CC(C)C)C(=O)[C@@]1(C)CO1` [carfilzomib], the TEAD-luciferase reporter activity is inactive: 0.447 (compound concentration: 200 nM), inactive: -2.24 (compound concentration: 2 uM) and inactive: 1.77 (compound concentration: 10 uM).

Regarding `CC1=NN(c2ccc(C)c(C)c2)C(=O)/C1=N/Nc1cccc(-c2cccc(-c3nnn[nH]3)c2)c1O`, the TEAD-luciferase reporter activity is inactive: 0.961 (compound concentration: 200 nM), inactive: -1.64 (compound concentration: 2 uM) and active: 6.85 (compound concentration: 10 uM).

In the case of `O=C(O)CCCc1ccc(C(CCCC(F)(F)C(F)(F)F)NS(=O)(=O)c2ccc(F)cc2)cc1` (single isomer, unassigned; (+)), the TEAD-luciferase reporter activity reads like this: (compound concentration: 200 nM) inactive: 4.91; (compound concentration: 2 uM) inactive: 1.3; (compound concentration: 10 uM) inactive: -0.665.

Turning to `Cc1nc(-c2ccc(OCC(C)C)c(C#N)c2)sc1C(=O)O` [febuxostat], the TEAD-luciferase reporter activity is active: 5.83 (compound concentration: 200 nM), inactive: -1.88 (compound concentration: 2 uM) and inactive: -0.243 (compound concentration: 10 uM).

`COc1ccc(Cc2c(O[C@@H]3O[C@H](CO)[C@@H](O)[C@H](O)[C@H]3O)nn(C(C)C)c2C)c(F)c1`: the TEAD-luciferase reporter activity is inactive: -2.03 (compound concentration: 200 nM), inactive: -0.427 (compound concentration: 2 uM) and inactive: 0.669 (compound concentration: 10 uM).

In the case of `Nc1ccc(S(=O)(=O)Nc2nccs2)cc1`, the TEAD-luciferase reporter activity reads like this: (compound concentration: 200 nM) inactive: -0.227; (compound concentration: 2 uM) inactive: -0.688; (compound concentration: 10 uM) inactive: -0.0864.

Take `CCN(CC)CCOC(=O)c1cccnc1`: the TEAD-luciferase reporter activity was inactive: -1.63 (compound concentration: 200 nM), inactive: 1.32 (compound concentration: 2 uM) and inactive: -0.505 (compound concentration: 10 uM).

As to `COc1cccc(-c2ccc(NC(=O)C3=C(C(=O)O)CCC3)c(F)c2)c1` [vidofludimus], the TEAD-luciferase reporter activity (compound concentration: 200 nM) is inactive: -0.616, the TEAD-luciferase reporter activity (compound concentration: 2 uM) is inactive: -1.51 and the TEAD-luciferase reporter activity (compound concentration: 10 uM) is inactive: 3.28.

Regarding `N/C(=N\N=C\c1ccc(Cl)cc1)N/N=C/c1ccc(Cl)cc1` [Robenidine hydrochloride], the TEAD-luciferase reporter activity by setting is: (compound concentration: 200 nM) inactive: -0.0806; (compound concentration: 2 uM) inactive: 0.363; (compound concentration: 10 uM) active: 7.54.

Consider `Cn1nnnc1SCC1=C(C(=O)[O-])N2C(=O)[C@@H](NC(=O)[C@H](OC=O)c3ccccc3)[C@H]2SC1` [Cefamandole Nafate], for which the TEAD-luciferase reporter activity (compound concentration: 2 uM) is inactive: 0.207.

On to `CC(C)(NS(=O)(=O)c1ccc(Oc2ccc(F)cc2)cc1)C(=O)NO`, for which the TEAD-luciferase reporter activity is, setting by setting: (compound concentration: 200 nM) inactive: -1.01; (compound concentration: 2 uM) inactive: -1.39; (compound concentration: 10 uM) inactive: 1.07.

For `CCCCOc1ccc(C(=O)OCCOCCN(CC)CC)cc1N`, the TEAD-luciferase reporter activity is, setting by setting: (compound concentration: 200 nM) inactive: -0.00466; (compound concentration: 2 uM) inactive: -1.21; (compound concentration: 10 uM) inactive: 2.75.

As for `O=c1[nH]c(=O)c2[nH]c(=O)[nH]c2[nH]1` [Uric acid], the TEAD-luciferase reporter activity (compound concentration: 200 nM) is inactive: -0.775, the TEAD-luciferase reporter activity (compound concentration: 2 uM) is inactive: -0.792 and the TEAD-luciferase reporter activity (compound concentration: 10 uM) is inactive: 0.221.

On to `CC(=O)N(O)[C@@H]1c2cc(C#N)ccc2OC(C)(C)[C@H]1O`, for which the TEAD-luciferase reporter activity (compound concentration: 200 nM) is inactive: -0.401, the TEAD-luciferase reporter activity (compound concentration: 2 uM) is inactive: -0.294 and the TEAD-luciferase reporter activity (compound concentration: 10 uM) was inactive: -1.74.
